Results are given in words; binding and its absence hold for the method and conditions named. In cells and extracts the contact can be indirect. Here binding means that the protein was enriched with, or labelled near, the bait; the list need not be complete.
Molecular target: amyloid beta Aβ1-42 (human (endogenous in hippocampus)) (UniProt P05067)
Experiment: affinity purification with mass spectrometry; detergent-insoluble aggregates from AD and age-matched control (AMC) hippocampi, immunoprecipitated with antibodies to amyloid beta or tau; spectral hits

Amino acid sequences for entries named in this document (tags omitted). Residues count along the entry.
UniProt P05067, residues 672-713: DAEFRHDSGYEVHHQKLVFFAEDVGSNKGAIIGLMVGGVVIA
UniProt P31947: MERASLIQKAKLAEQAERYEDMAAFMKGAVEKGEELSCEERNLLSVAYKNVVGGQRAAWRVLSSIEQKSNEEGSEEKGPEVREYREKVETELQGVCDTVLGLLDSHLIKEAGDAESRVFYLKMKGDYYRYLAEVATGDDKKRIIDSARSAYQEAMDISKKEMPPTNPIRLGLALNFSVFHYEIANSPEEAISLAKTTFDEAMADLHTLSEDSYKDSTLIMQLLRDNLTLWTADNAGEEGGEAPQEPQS
UniProt P63104: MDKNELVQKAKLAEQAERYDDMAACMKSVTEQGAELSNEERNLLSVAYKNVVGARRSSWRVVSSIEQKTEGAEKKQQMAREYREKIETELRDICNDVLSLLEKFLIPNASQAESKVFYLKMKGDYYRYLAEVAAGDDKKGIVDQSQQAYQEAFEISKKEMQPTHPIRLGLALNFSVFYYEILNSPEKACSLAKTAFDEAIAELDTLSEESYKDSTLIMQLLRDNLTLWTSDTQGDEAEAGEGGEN

Substance	binding
14-3-3S (14-3-3 sigma) (from UniProt P31947 1-248)	binds
14-3-3Z (14-3-3 zeta) (from UniProt P63104 1-245)	binds

From paper PMC9779020
